Measurements from “University of Dundee, Small-Polar-MMV Screening Library” (2021), ChEMBL document CHEMBL3988442.

The chains behind the UniProt entries cited, without tags or fusion partners.
UniProt E9BF75, entry or part of it: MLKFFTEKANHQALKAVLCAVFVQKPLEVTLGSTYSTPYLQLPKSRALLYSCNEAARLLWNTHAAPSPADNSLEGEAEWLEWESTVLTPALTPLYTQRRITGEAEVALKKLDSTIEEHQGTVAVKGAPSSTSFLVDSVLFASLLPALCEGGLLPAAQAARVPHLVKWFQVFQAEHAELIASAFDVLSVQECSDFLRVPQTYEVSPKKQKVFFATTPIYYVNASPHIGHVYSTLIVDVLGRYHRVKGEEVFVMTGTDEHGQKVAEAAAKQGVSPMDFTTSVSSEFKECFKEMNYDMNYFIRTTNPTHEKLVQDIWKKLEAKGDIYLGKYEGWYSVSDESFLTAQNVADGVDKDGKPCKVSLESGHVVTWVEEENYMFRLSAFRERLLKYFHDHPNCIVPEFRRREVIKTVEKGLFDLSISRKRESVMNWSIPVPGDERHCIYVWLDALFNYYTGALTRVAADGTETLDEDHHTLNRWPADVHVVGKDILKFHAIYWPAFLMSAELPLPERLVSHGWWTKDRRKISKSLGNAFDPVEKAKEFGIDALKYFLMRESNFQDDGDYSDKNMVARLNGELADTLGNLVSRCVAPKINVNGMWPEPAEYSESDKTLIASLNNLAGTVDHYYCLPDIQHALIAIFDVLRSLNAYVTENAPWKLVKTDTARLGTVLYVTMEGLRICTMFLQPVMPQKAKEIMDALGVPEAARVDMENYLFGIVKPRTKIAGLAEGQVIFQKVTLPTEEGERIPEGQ

Mtb heat-shock: 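Assay on Mycobacterium tuberculosis, filed only as a heat shock assay from Cornell; the read-out is not stated. The concentration is filed as 10 mM, unlikely as a test dose, so the dose is not known. Higher reads as stronger inhibition (inferred: compounds with an IC50 in retests scored well above the rest). About 69,000 compounds were tested under these conditions; 1.4% (about 930) showed 50% or more at least once.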
Mtb growth Cornell: 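Whole-cell assay for inhibitors of Mycobacterium tuberculosis growth, labelled Cornell in the record; the read-out is not stated. The concentration is filed as 10 mM, unlikely as a test dose, so the dose is not known. The record gives no direction; compounds strong in two other growth screens of this library score well above the rest, so higher reads as stronger inhibition. Of about 53,000 compounds tested this way, about 900 (1.7%) reached 50% or more in at least one test.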
LdMetRS: 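Primary screen of methionyl-tRNA synthetase; the read-out is not stated. Target: Methionyl-tRNA synthetase (putative), Leishmania donovani (UniProt E9BF75). The test concentration is not given. Values are per cent inhibition. Size under these conditions: about 68,000 compounds, about 24 of them at 50% or above in at least one test.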

All values are in %. How 0% and 100% were set is not recorded. Most values in the screen are low, and negative values occur. The compounds are a random part of those screened. A dash means the value is not listed here; it may have been measured.

| # | compound | Mtb heat-shock | Mtb growth Cornell | LdMetRS |
|---|---|---|---|---|
| 1 | `O=C(Nc1cnn(CC(=O)N2CCCCO2)c1)c1ccccn1` | -12.45 | -3.584 | 2.957 |
| 2 | `O=C(O)C(F)(F)F.[H][C@@]12CCN(c3nnc(C)s3)C[C@]1([H])O[C@H](C(=O)N1CCCC1)C2` | -14.76 | -15.41 | - |
| 3 | `[H][C@@]12CS(=O)(=O)C[C@]1([H])N(CCCOc1ccccc1)CCN2CC=C(C)C` | -9.598 | - | - |
| 4 | `Cn1c(C(F)(F)F)nn(CCNC(=O)c2cnc3ccccc3n2)c1=O` | 25.75 | -2.77 | 12.32 |
| 5 | `CN(C)CCn1ccc2cc(NC(=O)NCc3ncnn3C)ccc21` | -2.378 | -4.222 | 2.903 |
| 6 | `CCCn1cc(CN2CCOCC2c2[nH]ncc2C)cn1` (configuration not stated) | 13.72 | 33.77 | 11.63 |
| 7 | `CC1CCCN1Cc1cccc(C(=O)Nc2ccc3c(c2)CCC3=O)c1` (configuration not stated) | -7.71 | 15.07 | 7.436 |
| 8 | `O=C1O[C@@H]2CN(Cc3ccccc3F)C[C@@H]2N1CCCN1CCOCC1` | - | - | 0.2597 |
| 9 | `CN1CC[C@]2(CN(Cc3cccs3)C[C@H]2c2ccccc2)C1=O` | -1.801 | 4.17 | 13.87 |
| 10 | `Cc1csc(CNC(=O)N(C)Cc2ccc3c(c2)OCCO3)n1` | 11.46 | -71.37 | 10.65 |
| 11 | `c1ccn(Cc2nnc3n2CCCN(c2cnccn2)C3)c1` | -9.121 | -17.01 | 6.011 |
| 12 | `O=S(=O)(Cc1cccc(F)c1)NCC(O)Cc1ccccc1` (configuration not stated) | -1.773 | -3.576 | 9.441 |
| 13 | `Cc1nn(C)c(Oc2ccc(Cl)cc2)c1CN1CC[C@H](CO)[C@@H](O)C1` | 3.728 | 25.23 | 33.17 |
| 14 | `COCCNc1cc(C(=O)N2CCOCC2)nc(C)n1` | -10.48 | -2.455 | -6.203 |
| 15 | `CCC(NC(=O)Cn1ccc(=O)n(C)c1=O)c1ccc(OC)cc1` (configuration not stated) | -9.209 | -14.07 | 0.8065 |
| 16 | `CC1(CCC(=O)N2CCC(n3cc(C4(O)CCCC4)nn3)CC2)CC1` | 30.19 | 0.3729 | 6.738 |
| 17 | `CNC(=O)c1cc2ccccc2n1C` | -20.31 | -0.05075 | 3.611 |
| 18 | `CC(C)N1C[C@H](O)C[C@H]1c1nc(-c2ccc(OC(F)(F)F)cc2)no1` | -21.8 | - | 4.945 |
| 19 | `O=C(O)C(F)(F)F.O=C(O)C(F)(F)F.[H][C@@]12COC[C@]1(COCC1CCOCC1)CN(Cc1ccccn1)C2` | -0.5891 | 21.68 | - |
| 20 | `CCN(C(=O)c1ccc2nnc(C3CCN(S(C)(=O)=O)C3)n2c1)C(C)C` (configuration not stated) | -3.253 | -48.22 | -4.482 |
| 21 | `CCCN(C(=O)c1cc2c([nH]c1=O)CCCC2=O)C1CCCCC1` | -24.76 | -3.628 | 15.81 |
| 22 | `CNc1nc(C(=O)N2CCN(c3ccc(Cl)c(Cl)c3)CC2)cs1` | 22.67 | - | 24.28 |
| 23 | `CC[C@@H]1N(Cc2cc(OC)cc(OC)c2)CCC[C@]12CCC(=O)N2C` | 4.231 | 23.15 | 9.936 |
| 24 | `CSCC(CCO)NC(=O)Nc1ccc(Br)cc1` (configuration not stated) | 7.952 | -17.59 | 16.27 |
| 25 | `C=Cc1ccc(C(=O)N2CCCC(Nc3ccc(F)cc3)C2)cc1` (configuration not stated) | 4.257 | - | 9.783 |
| 26 | `NC(=O)c1cccc(NC(=O)CSc2ccc3c(c2)CCC3)c1` | -20.46 | -5.297 | 9.341 |
| 27 | `O=C(O)C(F)(F)F.O=C(O)C(F)(F)F.[H][C@@]12CN(CCN3CCCC3)CC[C@]1([H])CN(c1cnccn1)C2` | 21.86 | -11.48 | - |
| 28 | `[H][C@]12CN(C(=O)c3cccnc3)CCN1C(=O)N(Cc1ccc(F)cc1)C2` | -31.66 | - | - |
| 29 | `CCN1CCN(c2ccc(C(=O)NC(C)CCOC)cc2)CC1` (configuration not stated) | -16.26 | -1.002 | 4.811 |
| 30 | `CS(=O)(=O)N1CCOCC2(CCN(C(=O)c3ccncc3)CC2)C1` | - | - | 11.88 |
| 31 | `Cc1cc(C(=O)NCC(O)CN2CCCC2=O)ccc1F` (configuration not stated) | -2.668 | -11.5 | 20.32 |
| 32 | `COCCN1C[C@@H]2CN(S(=O)(=O)c3cccs3)C[C@@H]2C1=O` | - | - | 8.889 |
| 33 | `Cc1nc(C2CCCN(C(=O)c3ccc(S(C)(=O)=O)cc3)C2)no1` (configuration not stated) | -1.903 | - | 16.94 |
| 34 | `Cn1cnc(S(=O)(=O)NCC(C)(O)c2ccc3c(c2)OCO3)c1` (configuration not stated) | 11.35 | 14.03 | 9.353 |
| 35 | `[H][C@@]12CS(=O)(=O)C[C@]1([H])N(S(=O)(=O)N1CCc3ccccc3C1)CCN2CC` | 16.66 | 17.6 | - |
| 36 | `O=S1(=O)CCC(S(=O)(=O)c2cccc(S(=O)(=O)N3CCCCCC3)c2)C1` (configuration not stated) | 0.8306 | 15.4 | 14.92 |
| 37 | `COCCN(Cc1ccoc1)S(=O)(=O)c1cccc(C(F)(F)F)c1` | -3.394 | -3.442 | 9.859 |
| 38 | `COc1ccc(Br)c(C(=O)NCC2CCN(C(=O)c3ccoc3)CC2)c1` | -0.2738 | -29.21 | 11.33 |
| 39 | `CCn1cc(NC(=O)NCc2ccc(CO)c(F)c2)cn1` | 9.812 | - | 14.21 |
| 40 | `CCOc1ccc(CN2CCCC(c3cc4ncccc4[nH]3)C2)cc1` (configuration not stated) | -4.75 | 12.33 | 12.46 |
| 41 | `NC(=O)CN1CCCCC1c1ccc(-n2ccnc2)nc1` (configuration not stated) | 14.15 | -4.76 | 13.12 |
| 42 | `O=C(Cn1cc(Cl)cn1)NCCN1CCC(O)(c2ccc(F)cc2)CC1` | 6.669 | 36.23 | 7.812 |
| 43 | `Cc1ccc(NCc2cc(C#N)ccc2F)cc1-n1nnnc1C` | 15.42 | -4.78 | 10.42 |
| 44 | `[H][C@@]12CS(=O)(=O)C[C@]1([H])N(C(=O)c1cc(C(C)C)no1)CCN2CC=C(C)C` | 9.569 | 29.32 | - |
| 45 | `CC(O)c1cn(Cc2cccc(C(F)(F)F)c2)nn1` (configuration not stated) | 15.64 | 23.42 | 12.94 |
| 46 | `O=C(CC1CCCO1)NCCCC(=O)Nc1ccc(Cl)cc1` (configuration not stated) | 63.53 | 6.807 | 10.75 |
| 47 | `Clc1snnc1CN1CCOC(CNc2cccnn2)C1` (configuration not stated) | 17.79 | -15.07 | 11.74 |
| 48 | `Cc1nccnc1N1Cc2cnc(CC(C)C)nc2C1` | -11.51 | -3.336 | 13.07 |
| 49 | `Cc1nc(CCN)cc(N2CCC(O)(c3ccccc3)C2)n1` (configuration not stated) | -0.6612 | 30.77 | 5.514 |

Some entries from above, unchanged:

| compound | Mtb heat-shock | Mtb growth Cornell | LdMetRS |
|---|---|---|---|
| `O=C(CC1CCCO1)NCCCC(=O)Nc1ccc(Cl)cc1` (configuration not stated) | 63.53 | 6.807 | 10.75 |
| `Clc1snnc1CN1CCOC(CNc2cccnn2)C1` (configuration not stated) | 17.79 | -15.07 | 11.74 |
| `O=S(=O)(Cc1cccc(F)c1)NCC(O)Cc1ccccc1` (configuration not stated) | -1.773 | -3.576 | 9.441 |
| `O=C(O)C(F)(F)F.O=C(O)C(F)(F)F.[H][C@@]12CN(CCN3CCCC3)CC[C@]1([H])CN(c1cnccn1)C2` | 21.86 | -11.48 | - |